# Reference: publication PMC12216202
# Results are given in words; binding and its absence hold for the method and conditions named. Binding seen in cells or lysates may run through a third protein. Some results given as binding are weak or reduced against the parent protein; the word gives no strength. For some assays here: Tags and fused reporters may be left off the sequences shown.
# T1: Flag-tagged NAT10 (not stated (human or mouse cDNA cloned)) (UniProt Q8K224)
# T1 sequence: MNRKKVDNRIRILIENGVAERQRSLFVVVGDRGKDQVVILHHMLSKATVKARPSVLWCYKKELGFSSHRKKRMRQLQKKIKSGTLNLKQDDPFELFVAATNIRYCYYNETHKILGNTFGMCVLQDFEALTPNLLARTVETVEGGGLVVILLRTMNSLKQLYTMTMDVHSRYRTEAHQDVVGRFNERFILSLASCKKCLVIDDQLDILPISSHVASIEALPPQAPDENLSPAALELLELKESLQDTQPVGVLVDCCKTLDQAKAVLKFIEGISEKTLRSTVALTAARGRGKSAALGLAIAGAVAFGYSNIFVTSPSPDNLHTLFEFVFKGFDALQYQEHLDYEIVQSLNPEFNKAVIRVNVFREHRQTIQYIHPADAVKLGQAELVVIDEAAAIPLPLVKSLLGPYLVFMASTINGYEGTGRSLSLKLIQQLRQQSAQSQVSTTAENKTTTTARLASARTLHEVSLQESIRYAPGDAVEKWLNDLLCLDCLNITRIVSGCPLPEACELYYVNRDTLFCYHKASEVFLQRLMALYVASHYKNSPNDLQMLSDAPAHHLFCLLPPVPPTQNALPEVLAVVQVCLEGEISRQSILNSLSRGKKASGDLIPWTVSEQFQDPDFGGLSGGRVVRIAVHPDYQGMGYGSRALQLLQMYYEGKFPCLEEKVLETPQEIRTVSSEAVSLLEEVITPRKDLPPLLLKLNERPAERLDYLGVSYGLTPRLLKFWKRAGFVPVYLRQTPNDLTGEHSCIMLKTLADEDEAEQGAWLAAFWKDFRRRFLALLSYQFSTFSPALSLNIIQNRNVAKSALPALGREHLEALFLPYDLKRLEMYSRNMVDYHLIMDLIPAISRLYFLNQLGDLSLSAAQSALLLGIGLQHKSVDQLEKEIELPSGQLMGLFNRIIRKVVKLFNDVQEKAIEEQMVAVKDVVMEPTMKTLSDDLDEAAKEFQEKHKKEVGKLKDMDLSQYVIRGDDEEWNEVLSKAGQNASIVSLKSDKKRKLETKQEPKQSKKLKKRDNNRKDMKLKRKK
# T2: N-acetyltransferase 10 (mouse (endogenous in BMDMs)) (UniProt Q8K224)
# T2 sequence: T1 sequence
# B1: Myc-tagged USP39 (enzyme, UniProt Q3TIX9 1-564)
# chain: MSSRSKRQSHGSTRGKRESESRGSSGRIKKERDREKEPEAASSRGSPVRVKREAEPAAREVPAPALPVVRVKREREADEDSEPEREVRAKNGRVDSEDRRSRHCPYLDTINRSVLDFDFEKLCSISLSHINAYACLVCGKYFQGRGLKSHAYIHSVQFSHHVFLNLHTLKFYCLPDNYEIIDSSLEDITYVLKPTFTKQQIANLDKQAKLSRAYDGTTYLPGIVGLNNIKANDYANAVLQALSNVPPLRNYFLEEDNYKNIKRPPGDIMFLLVQRFGELMRKLWNPRNFKAHVSPHEMLQAVVLCSKKTFQITKQGDGVDFLSWFLNALHSALGGTKKKKKTIVNDVFQGSMRIFTKKLPHPDLPAEEKEQLLHNDEYQETMVESTFMYLTLDLPTAPLYKDEKEQLIIPQVPLFNILAKFNGITEKEYKTYKENFLKRFQLTKLPPYLIFCIKRFTKNNFFVEKNPTIVNFPITNVDLREYLSEEVQAVHKNTTYDLIANIVHDGKPSEGSYRIHVLHHGTGKWYELQDLQVTDILPQMITLSEAYIQIWKRRDNDETNQQGA
# B2: USP39 (enzyme, UniProt Q3TIX9 1-564)
# chain: B1 chain
# Legend:
# [1] = target: T1, Flag-tagged NAT10 (not stated (human or mouse cDNA cloned)); assay: co-IP; RAW264.7 cells transfected with Myc-tagged USP39 and Flag-tagged NAT10, treated with PBS or LPS for 24 h; lysates immunoprecipitated with anti-Flag antibody, Western blot
# [2] = target: T2, N-acetyltransferase 10 (mouse (endogenous in BMDMs)); assay: co-IP; Pierce Crosslink Magnetic IP/Co-IP Kit; 10 ug rabbit anti-mouse NAT10 antibody (ab194297), USP39 antibody (ab131244) or rabbit IgG; immunoprecipitates and input analysed by western blotting
Binder,binding [1],binding [2]
B1,binds,
B2,,binds
